Assay results taken from the supplement of paper PMC10849652.
Some of the results follow.

Amino acid sequences for entries named in this document (tags omitted). A change or cut given only in a name is not applied to a line headed by its entry.
UniProt P22061: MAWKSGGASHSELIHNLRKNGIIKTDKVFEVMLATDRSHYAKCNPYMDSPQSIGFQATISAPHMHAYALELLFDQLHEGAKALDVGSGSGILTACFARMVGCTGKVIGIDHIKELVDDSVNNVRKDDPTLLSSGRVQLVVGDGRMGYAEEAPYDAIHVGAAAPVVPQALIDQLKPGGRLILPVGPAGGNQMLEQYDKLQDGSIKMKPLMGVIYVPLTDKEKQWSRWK
UniProt Q15084: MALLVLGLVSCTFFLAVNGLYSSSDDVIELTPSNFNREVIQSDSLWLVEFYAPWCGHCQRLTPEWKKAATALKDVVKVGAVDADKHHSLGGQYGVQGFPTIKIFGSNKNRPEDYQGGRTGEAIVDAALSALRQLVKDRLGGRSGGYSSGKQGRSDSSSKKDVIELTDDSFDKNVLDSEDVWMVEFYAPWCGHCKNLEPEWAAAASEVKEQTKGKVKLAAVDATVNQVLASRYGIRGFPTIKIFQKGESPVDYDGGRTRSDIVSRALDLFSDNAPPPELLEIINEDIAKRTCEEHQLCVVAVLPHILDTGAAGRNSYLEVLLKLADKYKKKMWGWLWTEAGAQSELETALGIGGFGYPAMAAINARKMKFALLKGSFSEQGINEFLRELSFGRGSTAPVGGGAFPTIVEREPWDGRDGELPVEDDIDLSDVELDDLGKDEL
UniProt Q96HC4: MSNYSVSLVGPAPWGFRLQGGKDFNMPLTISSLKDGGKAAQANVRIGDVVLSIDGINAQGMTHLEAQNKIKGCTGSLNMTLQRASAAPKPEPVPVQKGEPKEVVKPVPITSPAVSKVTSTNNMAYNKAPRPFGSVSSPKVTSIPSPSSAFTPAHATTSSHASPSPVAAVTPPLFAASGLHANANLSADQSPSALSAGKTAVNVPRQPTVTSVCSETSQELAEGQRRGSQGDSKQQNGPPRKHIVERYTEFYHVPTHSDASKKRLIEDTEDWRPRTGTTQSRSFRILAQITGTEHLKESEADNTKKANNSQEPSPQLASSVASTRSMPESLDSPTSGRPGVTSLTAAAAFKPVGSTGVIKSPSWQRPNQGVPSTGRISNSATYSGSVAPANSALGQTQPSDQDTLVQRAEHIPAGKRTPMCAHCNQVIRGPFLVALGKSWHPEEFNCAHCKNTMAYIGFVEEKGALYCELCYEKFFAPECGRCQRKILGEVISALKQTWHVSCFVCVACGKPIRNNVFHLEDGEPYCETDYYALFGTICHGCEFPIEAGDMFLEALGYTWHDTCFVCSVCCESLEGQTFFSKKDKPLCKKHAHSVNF
UniProt P12004, whole entry, looked up: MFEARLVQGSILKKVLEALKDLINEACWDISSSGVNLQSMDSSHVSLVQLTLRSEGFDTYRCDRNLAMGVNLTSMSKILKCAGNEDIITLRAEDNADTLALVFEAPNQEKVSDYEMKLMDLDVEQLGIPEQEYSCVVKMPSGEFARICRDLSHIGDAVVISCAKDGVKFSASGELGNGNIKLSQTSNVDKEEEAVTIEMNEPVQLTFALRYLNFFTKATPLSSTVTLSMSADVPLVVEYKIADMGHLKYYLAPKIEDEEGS
UniProt Q9HBI1: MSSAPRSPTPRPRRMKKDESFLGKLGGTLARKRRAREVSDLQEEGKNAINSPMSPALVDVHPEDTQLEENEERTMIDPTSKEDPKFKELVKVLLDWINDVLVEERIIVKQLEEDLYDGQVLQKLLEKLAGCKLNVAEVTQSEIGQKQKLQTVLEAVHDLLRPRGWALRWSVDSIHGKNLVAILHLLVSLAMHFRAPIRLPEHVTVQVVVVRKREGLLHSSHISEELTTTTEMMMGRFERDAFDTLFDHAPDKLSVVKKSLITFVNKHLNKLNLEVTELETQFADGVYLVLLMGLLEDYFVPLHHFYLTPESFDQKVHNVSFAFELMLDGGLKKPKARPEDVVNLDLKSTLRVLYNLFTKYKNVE
UniProt O14737: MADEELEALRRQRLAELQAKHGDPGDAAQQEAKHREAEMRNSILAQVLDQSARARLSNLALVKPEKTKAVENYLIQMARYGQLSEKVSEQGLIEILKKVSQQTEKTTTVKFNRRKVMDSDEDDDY
UniProt Q9BUH6, whole entry, looked up: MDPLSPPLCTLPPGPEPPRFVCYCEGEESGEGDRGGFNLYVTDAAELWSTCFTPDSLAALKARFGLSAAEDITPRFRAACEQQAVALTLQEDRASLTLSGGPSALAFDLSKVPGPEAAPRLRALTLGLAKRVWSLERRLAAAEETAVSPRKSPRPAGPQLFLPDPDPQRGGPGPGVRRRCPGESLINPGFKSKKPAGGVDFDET
UniProt Q13310, whole entry, looked up: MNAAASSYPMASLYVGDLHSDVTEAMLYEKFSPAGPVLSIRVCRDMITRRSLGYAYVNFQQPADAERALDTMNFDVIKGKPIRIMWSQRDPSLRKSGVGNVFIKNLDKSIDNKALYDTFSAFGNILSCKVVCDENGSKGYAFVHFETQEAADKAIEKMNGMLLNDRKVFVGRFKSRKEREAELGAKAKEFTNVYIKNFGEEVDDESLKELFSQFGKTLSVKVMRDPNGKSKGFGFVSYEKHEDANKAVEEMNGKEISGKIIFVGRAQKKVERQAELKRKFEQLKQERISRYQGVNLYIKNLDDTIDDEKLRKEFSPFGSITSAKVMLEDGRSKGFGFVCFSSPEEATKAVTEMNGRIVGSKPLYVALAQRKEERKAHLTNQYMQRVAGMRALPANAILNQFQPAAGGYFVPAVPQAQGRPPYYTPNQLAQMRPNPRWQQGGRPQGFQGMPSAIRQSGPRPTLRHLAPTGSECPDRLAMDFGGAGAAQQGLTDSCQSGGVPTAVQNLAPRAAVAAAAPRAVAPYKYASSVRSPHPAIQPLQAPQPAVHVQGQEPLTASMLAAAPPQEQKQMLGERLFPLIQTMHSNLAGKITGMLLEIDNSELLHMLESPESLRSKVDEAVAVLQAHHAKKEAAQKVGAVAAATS
UniProt P56645: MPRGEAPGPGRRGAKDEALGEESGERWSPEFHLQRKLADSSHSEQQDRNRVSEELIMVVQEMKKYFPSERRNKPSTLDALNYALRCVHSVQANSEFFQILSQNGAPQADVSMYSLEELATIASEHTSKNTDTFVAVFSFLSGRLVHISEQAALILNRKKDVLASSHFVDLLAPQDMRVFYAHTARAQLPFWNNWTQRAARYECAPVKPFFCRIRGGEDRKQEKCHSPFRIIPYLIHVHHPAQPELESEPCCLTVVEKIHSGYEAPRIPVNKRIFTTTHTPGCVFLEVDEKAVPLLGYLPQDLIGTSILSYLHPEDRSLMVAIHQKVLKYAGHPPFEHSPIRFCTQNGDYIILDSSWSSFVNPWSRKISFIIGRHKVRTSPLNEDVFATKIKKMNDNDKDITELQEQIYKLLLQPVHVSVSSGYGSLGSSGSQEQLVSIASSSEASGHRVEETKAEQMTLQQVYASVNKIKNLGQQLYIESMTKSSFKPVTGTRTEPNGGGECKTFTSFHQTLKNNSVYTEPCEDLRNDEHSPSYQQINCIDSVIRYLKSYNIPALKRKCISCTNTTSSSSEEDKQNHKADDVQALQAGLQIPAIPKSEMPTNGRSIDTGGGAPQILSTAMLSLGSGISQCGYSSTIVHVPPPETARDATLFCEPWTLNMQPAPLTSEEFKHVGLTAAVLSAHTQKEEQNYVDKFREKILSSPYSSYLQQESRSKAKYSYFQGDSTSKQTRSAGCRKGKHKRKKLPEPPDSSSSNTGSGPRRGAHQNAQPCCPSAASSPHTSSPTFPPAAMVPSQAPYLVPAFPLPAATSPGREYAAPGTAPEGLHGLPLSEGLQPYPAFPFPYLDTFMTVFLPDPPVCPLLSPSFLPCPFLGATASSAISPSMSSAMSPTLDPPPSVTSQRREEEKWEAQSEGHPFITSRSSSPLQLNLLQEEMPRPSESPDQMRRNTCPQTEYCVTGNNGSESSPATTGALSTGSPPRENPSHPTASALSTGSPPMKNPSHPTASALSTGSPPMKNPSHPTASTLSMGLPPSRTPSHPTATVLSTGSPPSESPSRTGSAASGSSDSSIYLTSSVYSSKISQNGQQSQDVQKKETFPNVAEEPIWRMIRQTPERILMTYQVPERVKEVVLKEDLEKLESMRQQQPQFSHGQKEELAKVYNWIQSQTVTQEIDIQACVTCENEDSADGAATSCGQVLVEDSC
UniProt Q9H2J4: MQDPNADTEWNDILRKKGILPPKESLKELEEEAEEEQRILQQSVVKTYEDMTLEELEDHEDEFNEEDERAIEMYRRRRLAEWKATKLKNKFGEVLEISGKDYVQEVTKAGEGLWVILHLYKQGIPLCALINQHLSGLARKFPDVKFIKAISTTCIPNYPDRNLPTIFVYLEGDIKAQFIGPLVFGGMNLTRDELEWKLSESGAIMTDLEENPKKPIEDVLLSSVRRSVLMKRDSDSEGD
UniProt Q9BYG5: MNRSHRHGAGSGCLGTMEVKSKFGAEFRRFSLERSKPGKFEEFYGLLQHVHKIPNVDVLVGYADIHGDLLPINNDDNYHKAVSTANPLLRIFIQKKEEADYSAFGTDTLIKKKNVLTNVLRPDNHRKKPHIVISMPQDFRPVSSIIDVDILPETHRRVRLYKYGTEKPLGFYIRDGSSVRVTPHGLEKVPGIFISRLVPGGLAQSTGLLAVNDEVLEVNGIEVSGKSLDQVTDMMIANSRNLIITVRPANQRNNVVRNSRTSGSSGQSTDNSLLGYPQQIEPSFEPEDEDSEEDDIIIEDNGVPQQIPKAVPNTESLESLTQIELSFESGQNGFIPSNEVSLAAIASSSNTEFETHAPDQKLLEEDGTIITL
UniProt O00623: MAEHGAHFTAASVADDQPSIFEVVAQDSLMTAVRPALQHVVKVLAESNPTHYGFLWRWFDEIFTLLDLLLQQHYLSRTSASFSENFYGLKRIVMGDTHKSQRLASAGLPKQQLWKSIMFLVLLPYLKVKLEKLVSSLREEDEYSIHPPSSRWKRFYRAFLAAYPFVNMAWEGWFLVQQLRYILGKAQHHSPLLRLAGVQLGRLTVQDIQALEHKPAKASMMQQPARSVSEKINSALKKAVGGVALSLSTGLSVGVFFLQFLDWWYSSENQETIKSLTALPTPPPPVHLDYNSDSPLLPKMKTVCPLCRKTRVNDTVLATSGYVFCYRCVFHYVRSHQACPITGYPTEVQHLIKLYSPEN
UniProt Q9UHG3: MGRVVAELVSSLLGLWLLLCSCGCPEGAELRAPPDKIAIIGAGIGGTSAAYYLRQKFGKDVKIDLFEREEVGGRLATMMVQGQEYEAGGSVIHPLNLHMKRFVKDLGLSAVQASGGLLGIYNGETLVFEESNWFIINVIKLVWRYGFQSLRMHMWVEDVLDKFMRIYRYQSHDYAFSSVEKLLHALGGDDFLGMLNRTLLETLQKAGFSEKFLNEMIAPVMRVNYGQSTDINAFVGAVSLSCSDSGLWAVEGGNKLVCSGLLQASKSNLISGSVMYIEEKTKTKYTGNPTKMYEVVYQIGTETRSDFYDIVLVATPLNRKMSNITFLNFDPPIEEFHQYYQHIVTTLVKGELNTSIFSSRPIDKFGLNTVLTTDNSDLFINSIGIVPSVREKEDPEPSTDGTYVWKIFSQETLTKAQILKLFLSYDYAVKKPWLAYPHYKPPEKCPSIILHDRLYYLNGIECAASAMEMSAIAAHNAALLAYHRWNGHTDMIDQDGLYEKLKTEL
UniProt H7BZJ3: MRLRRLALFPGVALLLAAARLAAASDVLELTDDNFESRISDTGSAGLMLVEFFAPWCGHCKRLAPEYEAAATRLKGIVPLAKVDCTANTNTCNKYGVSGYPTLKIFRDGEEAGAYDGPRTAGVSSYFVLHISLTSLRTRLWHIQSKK
UniProt Q6P996: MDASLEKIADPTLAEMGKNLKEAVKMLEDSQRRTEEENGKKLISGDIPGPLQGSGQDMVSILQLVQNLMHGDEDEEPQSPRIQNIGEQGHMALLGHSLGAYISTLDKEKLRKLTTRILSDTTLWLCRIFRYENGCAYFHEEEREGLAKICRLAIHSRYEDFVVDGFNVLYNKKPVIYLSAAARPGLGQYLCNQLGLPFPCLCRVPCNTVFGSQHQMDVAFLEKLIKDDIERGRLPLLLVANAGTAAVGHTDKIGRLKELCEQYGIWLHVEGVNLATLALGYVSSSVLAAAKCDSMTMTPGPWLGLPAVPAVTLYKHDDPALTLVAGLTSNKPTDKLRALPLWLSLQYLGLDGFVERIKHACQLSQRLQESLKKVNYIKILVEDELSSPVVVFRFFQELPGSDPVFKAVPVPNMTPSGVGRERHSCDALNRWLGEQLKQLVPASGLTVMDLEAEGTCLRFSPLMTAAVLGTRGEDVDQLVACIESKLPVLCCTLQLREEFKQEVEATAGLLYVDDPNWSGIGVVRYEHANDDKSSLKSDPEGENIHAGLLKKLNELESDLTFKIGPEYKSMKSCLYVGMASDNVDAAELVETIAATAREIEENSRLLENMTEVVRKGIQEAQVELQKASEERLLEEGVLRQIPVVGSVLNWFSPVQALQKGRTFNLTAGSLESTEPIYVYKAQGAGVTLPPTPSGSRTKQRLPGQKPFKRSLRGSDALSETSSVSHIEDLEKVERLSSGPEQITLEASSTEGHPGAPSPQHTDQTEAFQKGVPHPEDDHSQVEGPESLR

How the values were obtained:
Experiment in all cases: log2 fold change, soluble protein after heating vs DMSO (PISA); higher = thermal stabilisation; K562 cells, 10 uM, 30 min; active = over 0.2 and 3.5 SD of the protein, either way, in both replicates (recomputed)
[1] = compound: COC1=CC=C(C=C1)CN2C=CC3=C2C=C(C=C3)C(=O)NO
In short: (§1)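 Thermal stability values are relative to control samples and come from duplicates. They are expressed as log2 fold changes. For measurement, K562 cells (2×10^6 cells/mL) received 10 μM compound for 30 min, and aliquots were heated for 3 min over 48°C-58°C, pooled, and extracted at 4°C in PBS with 0.5% NP-40. Soluble protein, the supernatant after 21,000xg for 90 min, was quantified by TMTpro 16plex LC-MS/MS with equalised channel sums.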

filanesib = compound: CON(C)C(=O)N1N=C(c2cc(F)ccc2F)S[C@@]1(CCCN)c1ccccc1 [filanesib]
In short: as §1

zotarolimus = compound: CO[C@H]1C[C@@H]2CC[C@@H](C)[C@@](O)(O2)C(=O)C(=O)N2CCCC[C@H]2C(=O)O[C@H]([C@H](C)C[C@@H]2CC[C@H](n3cnnn3)[C@H](OC)C2)CC(=O)[C@H](C)/C=C(\C)[C@@H](O)[C@@H](OC)C(=O)[C@H](C)C[C@H](C)/C=C/C=C/C=C/1C [zotarolimus]
In short: as §1

idasanutlin = compound: COc1cc(C(=O)O)ccc1NC(=O)[C@@H]1N[C@@H](CC(C)(C)C)[C@](C#N)(c2ccc(Cl)cc2F)[C@H]1c1cccc(Cl)c1F [idasanutlin]
In short: as §1

alisertib = compound: COc1cc(Nc2ncc3c(n2)-c2ccc(Cl)cc2C(c2c(F)cccc2OC)=NC3)ccc1C(=O)O [alisertib]
In short: as §1

[2] = compound: COc1cc2nc(-c3cc(F)ccc3O)nc(N[C@@H]3CNC[C@H]3C(C)(C)O)c2cc1OC
In short: as §1

gefitinib = compound: COc1cc2ncnc(Nc3ccc(F)c(Cl)c3)c2cc1OCCCN1CCOCC1 [gefitinib]
In short: as §1

[3] = compound: COc1cccc2cc(-c3nc([C@H]4CC[C@H](C(=O)O)CC4)n4ncnc(N)c34)[nH]c12
In short: as §1

lapatinib = compound: CS(=O)(=O)CCNCc1ccc(-c2ccc3ncnc(Nc4ccc(OCc5cccc(F)c5)c(Cl)c4)c3c2)o1 [lapatinib]
In short: as §1

pictilisib = compound: CS(=O)(=O)N1CCN(Cc2cc3nc(-c4cccc5[nH]ncc45)nc(N4CCOCC4)c3s2)CC1 [pictilisib]
In short: as §1

[4] = compound: CS(=O)(=O)c1ccc(-c2cnc(N)c(C(=O)Nc3ccccc3)n2)cc1
In short: as §1

crizotinib = compound: C[C@@H](Oc1cc(-c2cnn(C3CCNCC3)c2)cnc1N)c1c(Cl)ccc(F)c1Cl [crizotinib]
In short: as §1

[5] = compound: C[C@@H]1COCCN1C2=NC(=NC(=C2)C3(CC3)S(=O)(=O)C)C4=C5C=CNC5=CC=C4
In short: as §1

[6] = compound: C[C@H](C1=CC=C(C=C1)C(=O)NC2=C3C=CNC3=NC=C2)N
In short: as §1

duvelisib = compound: C[C@H](Nc1ncnc2nc[nH]c12)c1cc2cccc(Cl)c2c(=O)n1-c1ccccc1 [duvelisib]
In short: as §1

gandotinib = compound: Cc1cc(Nc2cc(CN3CCOCC3)c3nc(C)c(Cc4ccc(Cl)cc4F)n3n2)n[nH]1 [gandotinib]
In short: as §1

tozasertib = compound: Cc1cc(Nc2cc(N3CCN(C)CC3)nc(Sc3ccc(NC(=O)C4CC4)cc3)n2)n[nH]1 [tozasertib]
In short: as §1

[7] = compound: Cc1cc(SCc2sc(-c3ccc(C(F)(F)F)cc3)nc2C)ccc1OCC(=O)O
In short: as §1

doramapimod = compound: Cc1ccc(-n2nc(C(C)(C)C)cc2NC(=O)Nc2ccc(OCCN3CCOCC3)c3ccccc23)cc1 [doramapimod]
In short: as §1

ispinesib = compound: Cc1ccc(C(=O)N(CCCN)[C@@H](c2nc3cc(Cl)ccc3c(=O)n2Cc2ccccc2)C(C)C)cc1 [ispinesib]
In short: as §1

Measured: log2 fold change

PCMT1 isoform 2 (UniProt P22061)
inactive: [1] -0.085 | filanesib -0.081 | zotarolimus 0.03 | idasanutlin -0.066 | alisertib -0.029 | [2] 0.034 | gefitinib 0.02 | [3] 0.036 | lapatinib -0.045 | pictilisib 0.063 | [4] 0.024 | crizotinib 0.001 | [5] 0.08 | [6] -0.079 | duvelisib 0.068 | gandotinib 0.024 | tozasertib 0.028 | [7] 0.024 | doramapimod -0.005 | ispinesib 0.095

PDIA6 isoform 2 (UniProt Q15084)
inactive: [1] 0.001 | filanesib 0.012 | zotarolimus -0.044 | idasanutlin 0.021 | alisertib -0.058 | [2] 0.023 | gefitinib 0.047 | [3] -0.001 | lapatinib -0.042 | pictilisib -0.066 | [4] 0.011 | crizotinib 0.036 | [5] -0.016 | [6] -0.022 | duvelisib -0.003 | gandotinib -0.037 | tozasertib -0.021 | [7] -0.027 | doramapimod -0.014 | ispinesib 0.05

PDLIM5 (UniProt Q96HC4)
inactive: [1] -0.034 | filanesib -0.039 | zotarolimus 0.01 | idasanutlin -0.034 | alisertib 0.016 | [2] 0.021 | gefitinib -0.027 | [3] 0.053 | lapatinib -0.02 | pictilisib -0.024 | [4] 0.029 | crizotinib -0.089 | [5] 0.016 | [6] -0.059 | duvelisib 0.002 | gandotinib 0.045 | tozasertib -0.013 | [7] 0.009 | doramapimod -0.049 | ispinesib 0.01

PCNA (UniProt P12004)
inactive: [1] 0.014 | filanesib -0.094 | zotarolimus -0.021 | idasanutlin -0.036 | alisertib -0.052 | [2] -0.003 | gefitinib -0.002 | [3] 0.07 | lapatinib -0.012 | pictilisib 0.006 | [4] -0.008 | crizotinib 0.046 | [5] 0.019 | [6] -0.026 | duvelisib 0.031 | gandotinib 0.012 | tozasertib -0.045 | [7] -0.025 | doramapimod -0.028 | ispinesib 0.07

PARVB (UniProt Q9HBI1)
inactive: [1] -0.074 | filanesib -0.06 | zotarolimus 0.035 | idasanutlin 0 | alisertib 0.255 | [2] -0.035 | gefitinib -0.053 | [3] 0.015 | lapatinib 0.022 | pictilisib 0 | [4] 0.06 | crizotinib -0.096 | [5] 0.086 | [6] 0.002 | duvelisib 0.067 | gandotinib -0.058 | tozasertib -0.056 | [7] 0.066 | doramapimod 0.041 | ispinesib -0.083

PDCD5 (UniProt O14737)
inactive: [1] 0.054 | filanesib -0.122 | zotarolimus -0.003 | idasanutlin -0.01 | alisertib -0.033 | [2] 0.018 | gefitinib 0.004 | [3] 0.056 | lapatinib -0.054 | pictilisib 0.009 | [4] -0.071 | crizotinib -0.027 | [5] 0.056 | [6] -0.081 | duvelisib -0.006 | gandotinib 0.001 | tozasertib 0.015 | [7] -0.044 | doramapimod -0.015 | ispinesib 0.016

PAXX (UniProt Q9BUH6)
inactive: [1] 0.034 | filanesib -0.009 | zotarolimus -0.003 | idasanutlin 0.026 | alisertib 0.012 | [2] 0.028 | gefitinib -0.006 | [3] 0.062 | lapatinib -0.013 | pictilisib 0.025 | [4] -0.043 | crizotinib 0.036 | [5] -0.117 | [6] -0.039 | duvelisib 0.028 | gandotinib 0.008 | tozasertib 0 | [7] -0.016 | doramapimod 0.021 | ispinesib -0.051

PABPC4 isoform 3 (UniProt Q13310)
inactive: [1] 0.003 | filanesib 0.088 | zotarolimus -0.035 | idasanutlin 0.099 | alisertib -0.046 | [2] -0.04 | gefitinib -0.033 | [3] -0.095 | lapatinib 0.048 | pictilisib -0.091 | [4] -0.058 | crizotinib -0.011 | [5] -0.178 | [6] 0.05 | duvelisib -0.076 | gandotinib 0.032 | tozasertib 0.056 | [7] 0.037 | doramapimod 0.011 | ispinesib -0.095

PER3 isoform 2 (UniProt P56645)
inactive: [1] 0.026 | filanesib -0.084 | zotarolimus -0.021 | idasanutlin 0.005 | alisertib -0.077 | [2] 0.072 | gefitinib 0.016 | [3] -0.015 | lapatinib -0.007 | pictilisib 0.058 | [4] -0.031 | crizotinib 0.08 | [5] -0.004 | [6] -0.165 | duvelisib -0.036 | gandotinib 0.058 | tozasertib 0.019 | [7] -0.113 | doramapimod 0.034 | ispinesib 0.024

Copied from above (2 entries):
PARVB (UniProt Q9HBI1)
inactive: [1] -0.074 | filanesib -0.06 | zotarolimus 0.035 | idasanutlin 0 | alisertib 0.255 | [2] -0.035 | gefitinib -0.053 | [3] 0.015 | lapatinib 0.022 | pictilisib 0 | [4] 0.06 | crizotinib -0.096 | [5] 0.086 | [6] 0.002 | duvelisib 0.067 | gandotinib -0.058 | tozasertib -0.056 | [7] 0.066 | doramapimod 0.041 | ispinesib -0.083

PDCD5 (UniProt O14737)
inactive: [1] 0.054 | filanesib -0.122 | zotarolimus -0.003 | idasanutlin -0.01 | alisertib -0.033 | [2] 0.018 | gefitinib 0.004 | [3] 0.056 | lapatinib -0.054 | pictilisib 0.009 | [4] -0.071 | crizotinib -0.027 | [5] 0.056 | [6] -0.081 | duvelisib -0.006 | gandotinib 0.001 | tozasertib 0.015 | [7] -0.044 | doramapimod -0.015 | ispinesib 0.016

Next part:

PDCL3 (UniProt Q9H2J4)
inactive: [1] -0.017 | filanesib -0.023 | zotarolimus 0.003 | idasanutlin -0.048 | alisertib -0.063 | [2] 0.011 | gefitinib 0.011 | [3] 0.019 | lapatinib 0.013 | pictilisib 0.012 | [4] 0.051 | crizotinib 0.023 | [5] 0.014 | [6] -0.053 | duvelisib 0.031 | gandotinib -0.049 | tozasertib 0.019 | [7] -0.012 | doramapimod -0.031 | ispinesib 0.047

PEBP1 (UniProt P30086)
inactive: [1] -0.027 | filanesib 0.025 | zotarolimus -0.032 | idasanutlin 0.023 | alisertib -0.058 | [2] -0.021 | gefitinib -0.003 | [3] 0.015 | lapatinib 0.008 | pictilisib -0.056 | [4] 0.004 | crizotinib 0.057 | [5] -0.028 | [6] -0.057 | duvelisib 0 | gandotinib 0.057 | tozasertib -0.018 | [7] -0.036 | doramapimod -0.016 | ispinesib 0.036

PARD6B (UniProt Q9BYG5)
inactive: [1] 0.037 | filanesib 0.044 | zotarolimus -0.008 | idasanutlin -0.181 | alisertib -0.1 | [2] -0.19 | gefitinib -0.012 | [3] 0.064 | lapatinib 0.035 | pictilisib -0.14 | [4] 0.104 | crizotinib 0.137 | [5] 0.068 | [6] 0.069 | duvelisib -0.068 | gandotinib 0.032 | tozasertib -0.075 | [7] 0.027 | doramapimod 0.054 | ispinesib -0.026

PEX12 (UniProt O00623)
inactive: [1] 0.095 | filanesib -0.055 | zotarolimus -0.112 | idasanutlin -0.073 | alisertib -0.023 | [2] -0.111 | gefitinib 0.001 | [3] -0.046 | lapatinib 0.014 | pictilisib -0.11 | [4] 0.095 | crizotinib -0.024 | [5] -0.009 | [6] -0.021 | duvelisib 0.018 | gandotinib 0.193 | tozasertib -0.015 | [7] 0 | doramapimod -0.036 | ispinesib -0.159

PCYOX1 (UniProt Q9UHG3)
inactive: [1] -0.047 | filanesib -0.034 | zotarolimus -0.02 | idasanutlin -0.033 | alisertib -0.038 | [2] 0.015 | gefitinib 0.001 | [3] 0.052 | lapatinib -0.016 | pictilisib -0.014 | [4] -0.031 | crizotinib 0.03 | [5] 0.001 | [6] -0.017 | duvelisib -0.018 | gandotinib -0.065 | tozasertib 0.028 | [7] -0.046 | doramapimod 0.058 | ispinesib 0.114

PDIA3 (UniProt H7BZJ3)
inactive: [1] -0.161 | filanesib 0.03 | zotarolimus 0.011 | idasanutlin 0.113 | alisertib -0.072 | [2] -0.081 | gefitinib -0.009 | [3] -0.173 | lapatinib 0.048 | pictilisib -0.224 | [4] 0.14 | crizotinib 0.045 | [5] -0.175 | [6] 0.092 | duvelisib 0.168 | gandotinib 0.075 | tozasertib -0.029 | [7] -0.098 | doramapimod 0.026

PDXDC1 (UniProt Q6P996)
inactive: [1] -0.033 | filanesib 0.317 | zotarolimus 0.116 | idasanutlin 0.01 | alisertib -0.067 | [2] -0.068 | gefitinib 0.012 | [3] -0.028 | lapatinib 0.249 | pictilisib 0.157 | [4] 0.089 | crizotinib -0.069 | [5] -0.271 | [6] 0.303 | duvelisib -0.045 | gandotinib 0.057 | tozasertib 0.088 | [7] 0.062 | doramapimod 0.294 | ispinesib -0.261
